Among the data in US20040171021A1 are binding values, retold here.

Chains of the proteins cited; added tags and fusions are not shown. Residues count along the entry.
UniProt P20151, residues 25-261: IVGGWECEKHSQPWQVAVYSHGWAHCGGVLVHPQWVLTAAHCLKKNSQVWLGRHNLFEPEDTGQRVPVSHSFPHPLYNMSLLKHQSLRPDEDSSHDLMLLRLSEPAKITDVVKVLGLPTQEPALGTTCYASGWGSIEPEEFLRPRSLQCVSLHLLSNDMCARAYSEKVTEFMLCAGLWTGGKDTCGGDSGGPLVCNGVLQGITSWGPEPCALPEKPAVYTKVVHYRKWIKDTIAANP

The target in the assay is T1, macrophage migration inhibitory factor (MIF) (UniProt P14174).
T1 sequence (looked up): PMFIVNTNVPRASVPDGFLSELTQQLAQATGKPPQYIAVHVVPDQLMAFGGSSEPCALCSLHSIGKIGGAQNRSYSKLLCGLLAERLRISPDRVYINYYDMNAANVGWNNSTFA
The assay can be described thus: MIF antibody affinity purification of LNCaP lysate; MALDI-TOF and Edman sequencing.

No constants are given. Whether binding was seen depends on the method and setting. Some binding calls cover weakened binding; strength is not graded here.

With “human glandular kallikrein-2 (hK2) (from UniProt P20151 25-261) (enzyme)”, the binding entry is “binds”.
